Results from the M2OR odorant receptor database.
Only a part is listed here, and it is no random draw. The calls were merged from several studies; some rest on single wells. The list shows a part of the results.

Tests used:
Details in all cases: stereoisomer not certain
OR52K2 (Homo sapiens) = biological target: T1, OR52K2 (Homo sapiens) (UniProt Q8NGK3)
T1 sequence (whole entry): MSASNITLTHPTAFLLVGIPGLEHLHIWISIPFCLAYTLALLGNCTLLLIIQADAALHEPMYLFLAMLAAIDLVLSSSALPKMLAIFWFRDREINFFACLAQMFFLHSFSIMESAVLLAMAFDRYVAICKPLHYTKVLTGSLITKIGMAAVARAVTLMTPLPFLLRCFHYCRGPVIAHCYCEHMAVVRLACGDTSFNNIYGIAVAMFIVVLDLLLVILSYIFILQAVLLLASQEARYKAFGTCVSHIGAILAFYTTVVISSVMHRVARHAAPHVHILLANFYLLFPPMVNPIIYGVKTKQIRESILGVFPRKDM
Method in brief: (§1)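 Values were gathered from published papers (main text and supplementary material), with extra details requested from the original authors when needed, and checked for typos and inconsistencies. Each receptor–molecule pair is called responsive (active) if the original authors judged the measured signal statistically different from baseline, and non-responsive (inactive) otherwise. Assay methods varied by source, often transient mammalian cell-line luciferase assays. Recorded details include cell line, G-protein, co-transfected protein and tags.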

OR52N5 (Homo sapiens) = biological target: T2, OR52N5 (Homo sapiens) (UniProt Q8NH56)
T2 sequence (whole entry): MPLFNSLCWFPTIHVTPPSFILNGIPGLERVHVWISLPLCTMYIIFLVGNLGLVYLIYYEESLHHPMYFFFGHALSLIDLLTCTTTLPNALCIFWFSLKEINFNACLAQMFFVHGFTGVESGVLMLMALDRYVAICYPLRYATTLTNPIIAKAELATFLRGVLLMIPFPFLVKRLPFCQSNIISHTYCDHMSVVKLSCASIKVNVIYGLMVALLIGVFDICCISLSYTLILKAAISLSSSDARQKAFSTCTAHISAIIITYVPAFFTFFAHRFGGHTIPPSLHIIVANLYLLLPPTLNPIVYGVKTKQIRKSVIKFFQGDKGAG
Method in brief: as §1

OR56A1 (Homo sapiens) = biological target: T3, OR56A1 (Homo sapiens) (UniProt Q8NGH5)
T3 sequence (whole entry): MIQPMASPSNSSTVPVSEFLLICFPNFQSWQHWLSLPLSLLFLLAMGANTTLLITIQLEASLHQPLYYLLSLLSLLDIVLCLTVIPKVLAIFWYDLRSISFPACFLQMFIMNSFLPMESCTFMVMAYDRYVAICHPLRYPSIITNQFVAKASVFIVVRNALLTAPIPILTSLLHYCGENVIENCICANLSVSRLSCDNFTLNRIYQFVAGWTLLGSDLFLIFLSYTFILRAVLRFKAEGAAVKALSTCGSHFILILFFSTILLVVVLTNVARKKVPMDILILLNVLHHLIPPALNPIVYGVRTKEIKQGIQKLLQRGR
Method in brief: as §1

OR56A4 (Homo sapiens) = biological target: T4, OR56A4 (Homo sapiens) (UniProt Q8NGH8)
T4 sequence (whole entry): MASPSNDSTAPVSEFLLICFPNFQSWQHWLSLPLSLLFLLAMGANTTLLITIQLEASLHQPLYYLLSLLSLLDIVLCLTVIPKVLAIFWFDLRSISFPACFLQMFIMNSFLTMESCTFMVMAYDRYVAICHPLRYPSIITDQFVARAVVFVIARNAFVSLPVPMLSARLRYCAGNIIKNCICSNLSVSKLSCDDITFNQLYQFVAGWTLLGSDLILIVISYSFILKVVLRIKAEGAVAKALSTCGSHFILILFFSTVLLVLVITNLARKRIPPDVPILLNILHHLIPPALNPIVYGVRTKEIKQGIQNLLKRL
Method in brief: as §1

OR56A5 (Homo sapiens) = biological target: T5, OR56A5 (Homo sapiens) (UniProt P0C7T3)
T5 sequence (whole entry): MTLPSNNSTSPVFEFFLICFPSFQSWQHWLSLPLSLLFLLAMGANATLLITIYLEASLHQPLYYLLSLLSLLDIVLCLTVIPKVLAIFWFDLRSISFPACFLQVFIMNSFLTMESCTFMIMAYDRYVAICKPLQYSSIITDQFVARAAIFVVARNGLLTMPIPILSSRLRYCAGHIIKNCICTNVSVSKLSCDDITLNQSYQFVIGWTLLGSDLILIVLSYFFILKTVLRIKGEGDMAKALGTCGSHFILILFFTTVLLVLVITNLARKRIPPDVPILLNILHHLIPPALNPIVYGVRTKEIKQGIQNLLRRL
Method in brief: as §1

OR5A1 [1] = system: T6, OR5A1
T6 sequence (whole entry): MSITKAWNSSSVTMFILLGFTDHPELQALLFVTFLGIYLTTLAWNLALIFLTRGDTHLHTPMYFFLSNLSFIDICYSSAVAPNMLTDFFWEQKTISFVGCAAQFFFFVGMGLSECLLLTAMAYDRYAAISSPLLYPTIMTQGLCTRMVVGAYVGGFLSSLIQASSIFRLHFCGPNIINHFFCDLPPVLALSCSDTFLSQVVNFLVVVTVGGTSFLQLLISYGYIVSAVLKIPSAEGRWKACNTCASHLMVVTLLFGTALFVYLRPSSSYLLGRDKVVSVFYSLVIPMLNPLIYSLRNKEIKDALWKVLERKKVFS
Method in brief: as §1

OR5A1 [2] = system: T7, OR5A1; remark: listed apart in the source
T7 sequence (whole entry): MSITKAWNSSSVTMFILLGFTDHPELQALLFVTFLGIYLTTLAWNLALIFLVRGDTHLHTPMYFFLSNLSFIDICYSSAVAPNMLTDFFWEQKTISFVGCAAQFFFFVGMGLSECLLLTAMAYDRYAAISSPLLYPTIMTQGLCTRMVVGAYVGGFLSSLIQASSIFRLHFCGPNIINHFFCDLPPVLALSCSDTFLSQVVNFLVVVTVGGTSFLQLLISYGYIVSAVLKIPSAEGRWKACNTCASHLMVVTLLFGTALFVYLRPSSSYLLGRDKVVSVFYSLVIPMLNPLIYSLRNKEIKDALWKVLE
Method in brief: as §1

OR5A1 [3] = system: T8, OR5A1; remark: listed apart in the source
T8 sequence (whole entry): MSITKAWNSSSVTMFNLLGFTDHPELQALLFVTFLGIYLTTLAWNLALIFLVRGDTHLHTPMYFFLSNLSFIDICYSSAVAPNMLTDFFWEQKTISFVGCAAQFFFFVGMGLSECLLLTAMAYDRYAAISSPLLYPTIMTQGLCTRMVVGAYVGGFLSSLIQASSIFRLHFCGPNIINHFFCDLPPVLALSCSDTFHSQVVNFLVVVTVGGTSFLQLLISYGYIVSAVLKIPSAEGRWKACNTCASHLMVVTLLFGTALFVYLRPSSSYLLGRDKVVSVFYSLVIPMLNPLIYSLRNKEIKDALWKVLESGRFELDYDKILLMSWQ
Method in brief: as §1

OR5A2 (Homo sapiens) = biological target: T9, OR5A2 (Homo sapiens) (UniProt Q8NGI9)
T9 sequence (whole entry): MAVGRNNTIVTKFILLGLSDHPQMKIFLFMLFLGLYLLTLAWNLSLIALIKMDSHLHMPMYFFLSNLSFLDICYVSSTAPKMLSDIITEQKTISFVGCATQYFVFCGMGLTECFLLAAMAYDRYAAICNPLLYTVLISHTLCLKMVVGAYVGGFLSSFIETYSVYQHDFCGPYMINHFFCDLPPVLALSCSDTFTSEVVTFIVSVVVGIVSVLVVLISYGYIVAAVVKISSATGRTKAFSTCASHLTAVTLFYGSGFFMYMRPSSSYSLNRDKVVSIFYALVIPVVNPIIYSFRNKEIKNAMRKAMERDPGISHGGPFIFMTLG
Method in brief: as §1

OR5AK2 (Homo sapiens) = biological target: T10, OR5AK2 (Homo sapiens) (UniProt Q8NH90)
T10 sequence (whole entry): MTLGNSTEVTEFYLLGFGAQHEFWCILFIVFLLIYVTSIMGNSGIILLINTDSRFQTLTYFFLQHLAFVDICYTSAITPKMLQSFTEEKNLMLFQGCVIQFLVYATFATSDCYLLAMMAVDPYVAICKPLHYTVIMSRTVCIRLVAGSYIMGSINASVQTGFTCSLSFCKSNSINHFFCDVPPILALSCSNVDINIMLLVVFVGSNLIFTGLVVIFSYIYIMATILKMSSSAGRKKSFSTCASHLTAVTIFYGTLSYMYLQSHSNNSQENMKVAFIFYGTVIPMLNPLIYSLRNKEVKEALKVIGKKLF
Method in brief: as §1

Measured: odorant receptor agonist call

CS
active: OR56A5 (Homo sapiens)
inactive: all other assays above
